# Data: PubChem BioAssay AID540256 (National Center for Advancing Translational Sciences (NCATS), 2011)
# The whole screen tested about 300,000 compounds, of which about 3,700 (1.2%) were called active. This list was built around the results that the source calls inconclusive (neither active nor inactive); the mix of calls is not that of the screen. Calls follow the shape of the full dose curve; tested in HEK293 cells. Potencies of inconclusive entries are doubtful fits and often do not repeat.
# Experiment: qHTS for Inhibitors of binding or entry into cells for Lassa Virus; also: nearly all actives have a fitted effect of over 50% in size
# Conditions: Lassa virus pseudotype entry inhibition, cell reporter; series mostly up to 37.9 µM
# Potency is read from the fitted curve at half-maximal effect.
row,SMILES,Potency
1,Cc1c(N=Cc2nc3ccccc3n2C)c(=O)n(-c2ccccc2)n1C,inactive
2,Cc1ccc(NC(=O)C2(S(=O)(=O)c3ccc(Cl)cc3)CC2)c(Br)c1,inactive
3,CN1c2ccccc2Oc2nnc(N3CCN(Cc4ccccc4)CC3)cc21,inactive
4,CCN(CC)CCNC(=O)c1ccc2c(=O)n(C3CCCC3)c(=S)[nH]c2c1,"inconclusive: 16.4 µM [inhibitor, single point]"
5,COc1cc(NC(=O)Cn2c(C)cc3ccccc3c2=O)cc(OC)c1OC,"inconclusive: 35.5 µM [activator, single point]"
6,O=C(NN1CCOCC1)c1cc(-c2ccncc2)nc2ccccc12,"inconclusive: 0.112 µM [inhibitor, full curve, poor fit]"
7,O=C(O)COc1ccc(/C=C/C(=O)c2ccc3ccccc3c2)cc1,"inconclusive: 15.8 µM [inhibitor, single point]"
8,Cc1cc(C)cc(NC(=O)Cn2nnc(C(=O)Nc3cc(C)cc(C)c3)c2N)c1,inactive
9,CCc1ccc(CNC(=O)CCN2C(=O)COc3ccccc32)cc1,inactive
10,COC(=O)c1ccccc1NC(=O)N1c2ccccc2Sc2ccccc21,"inconclusive: 23.1 µM [inhibitor, partial curve, poor fit]"
11,Cc1nc(-c2ccc(F)cc2)sc1CCNC(=O)c1ccco1,"inconclusive: 3.55 µM [activator, single point]"
12,CCCCCC(=O)N1CCN(CCN=CC2=C(O)CC(c3ccc(OC)c(OC)c3)CC2=O)CC1 (stereo not given),"inconclusive: 35.5 µM [activator, single point]"
13,COc1ccccc1NC(=O)COC(=O)/C=C/c1ccc(OC)c(OC)c1,"inconclusive: 31.6 µM [inhibitor, partial curve, poor fit]"
14,COc1ccc(O)c(-c2cc(-c3cccc(Br)c3)n[nH]2)c1,"inconclusive: 35.5 µM [inhibitor, single point]"
15,COc1ccc(NC(=O)Cn2nnc(C(=O)NCc3ccccc3Cl)c2N)cc1Cl,inactive
16,O=C(C[n+]1cccc2ccccc21)c1ccc([N+](=O)[O-])cc1,"inconclusive: 35.5 µM [inhibitor, single point]"
17,Cc1ccc(NC(=S)N2CCCCCC2)cc1,inactive
18,COc1ccc(-n2nnnc2CNC(=O)c2ccc3ccccc3c2)cc1,"inconclusive: 22.4 µM [inhibitor, partial curve, poor fit]"
19,C/C(N)=C(/C#N)C(=O)COC(=O)c1ccc(O)cc1,"inconclusive: 25.9 µM [activator, single point]"
20,COc1cc(/C=N/Nc2ccc(C(=O)O)cc2)ccc1O,"inconclusive: 20.6 µM [inhibitor, single point]"

# A draw from above in order of molar mass, smallest number first:
row,SMILES,Potency
18,COc1ccc(-n2nnnc2CNC(=O)c2ccc3ccccc3c2)cc1,"inconclusive: 22.4 µM [inhibitor, partial curve, poor fit]"
3,CN1c2ccccc2Oc2nnc(N3CCN(Cc4ccccc4)CC3)cc21,inactive
2,Cc1ccc(NC(=O)C2(S(=O)(=O)c3ccc(Cl)cc3)CC2)c(Br)c1,inactive
15,COc1ccc(NC(=O)Cn2nnc(C(=O)NCc3ccccc3Cl)c2N)cc1Cl,inactive
12,CCCCCC(=O)N1CCN(CCN=CC2=C(O)CC(c3ccc(OC)c(OC)c3)CC2=O)CC1 (stereo not given),"inconclusive: 35.5 µM [activator, single point]"
